# Values quoted from earlier work as cited in patent US8987302B2, “Treatment of hepatitis C virus related diseases using hydroxychloroquine or a combination of hydroxychloroquine and an anti-viral agent” (Panmed Ltd., priority 2010, dated 2015).
# Read-outs that look alike come from different tables or passages of the source. Some entries share one result that the patent states for a list of compounds.
# Tested on: HCV
# Conditions: cited from earlier work
SMILES,viral RNA with respect to the untreated control (10.75 μM),viral RNA with respect to the untreated control (6.6 μM)
"CCN(CC)CCCC(C)Nc1ccnc2cc(Cl)ccc12 (centres unmarked) [CQ, chloroquine]",below 7%,–
"CCN(CCO)CCCC(C)Nc1ccnc2cc(Cl)ccc12 (centres unmarked) [HCQ, 2-[[4-[(7-chloro-4-quinolinyl)amino]pentyl]ethylamino]ethanol, reference compound]",–,below 7%
